According to the supplement of paper PMC12819154, “High-throughput peptide-centric local stability assay extends protein–ligand identification to membrane proteins, tissues and bacteria” (Nature Structural & Molecular Biology, 2025):
This is one part of the list. Small differences around the control level are noise.

Sequences of proteins named here, by UniProt entry; tags and fusion partners are left off. A change or cut given only in a name is not applied to a line headed by its entry.
UniProt A6X942: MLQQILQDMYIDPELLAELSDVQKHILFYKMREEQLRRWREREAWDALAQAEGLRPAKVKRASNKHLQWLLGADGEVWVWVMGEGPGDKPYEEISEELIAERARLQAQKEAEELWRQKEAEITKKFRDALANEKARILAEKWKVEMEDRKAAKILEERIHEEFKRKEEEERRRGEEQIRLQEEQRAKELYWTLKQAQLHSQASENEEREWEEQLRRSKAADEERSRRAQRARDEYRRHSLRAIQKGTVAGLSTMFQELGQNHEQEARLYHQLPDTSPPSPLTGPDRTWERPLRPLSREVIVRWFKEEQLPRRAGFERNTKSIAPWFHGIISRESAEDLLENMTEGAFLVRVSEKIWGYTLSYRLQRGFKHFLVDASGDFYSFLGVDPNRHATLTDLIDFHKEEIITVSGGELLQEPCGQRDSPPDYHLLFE
UniProt A2A9F4: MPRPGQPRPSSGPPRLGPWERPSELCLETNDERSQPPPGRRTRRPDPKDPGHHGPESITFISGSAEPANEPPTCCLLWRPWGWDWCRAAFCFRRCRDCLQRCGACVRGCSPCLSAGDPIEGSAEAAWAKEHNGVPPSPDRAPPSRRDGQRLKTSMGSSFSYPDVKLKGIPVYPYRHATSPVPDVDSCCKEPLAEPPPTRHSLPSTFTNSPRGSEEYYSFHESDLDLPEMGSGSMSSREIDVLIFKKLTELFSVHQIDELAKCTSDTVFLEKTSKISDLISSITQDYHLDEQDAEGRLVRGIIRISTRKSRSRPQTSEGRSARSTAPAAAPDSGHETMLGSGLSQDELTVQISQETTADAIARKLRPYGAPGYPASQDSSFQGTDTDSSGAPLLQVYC
UniProt B1AR13: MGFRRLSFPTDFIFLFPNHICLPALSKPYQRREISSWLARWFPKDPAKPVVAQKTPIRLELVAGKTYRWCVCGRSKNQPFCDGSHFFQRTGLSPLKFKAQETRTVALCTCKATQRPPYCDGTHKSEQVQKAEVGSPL
UniProt A2AJL3: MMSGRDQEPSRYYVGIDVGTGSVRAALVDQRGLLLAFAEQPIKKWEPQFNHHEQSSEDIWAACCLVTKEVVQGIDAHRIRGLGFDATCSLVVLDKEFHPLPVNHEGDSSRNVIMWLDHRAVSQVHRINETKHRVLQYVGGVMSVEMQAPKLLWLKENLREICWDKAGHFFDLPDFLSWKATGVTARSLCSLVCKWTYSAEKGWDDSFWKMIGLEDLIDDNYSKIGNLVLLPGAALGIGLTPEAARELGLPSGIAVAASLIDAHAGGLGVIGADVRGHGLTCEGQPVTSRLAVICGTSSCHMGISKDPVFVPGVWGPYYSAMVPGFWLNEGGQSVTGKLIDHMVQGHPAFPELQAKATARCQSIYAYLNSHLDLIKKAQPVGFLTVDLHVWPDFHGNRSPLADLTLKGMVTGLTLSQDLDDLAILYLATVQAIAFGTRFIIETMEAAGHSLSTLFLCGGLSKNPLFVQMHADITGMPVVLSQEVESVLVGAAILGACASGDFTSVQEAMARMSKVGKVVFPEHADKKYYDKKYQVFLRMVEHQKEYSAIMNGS
UniProt A2AT37: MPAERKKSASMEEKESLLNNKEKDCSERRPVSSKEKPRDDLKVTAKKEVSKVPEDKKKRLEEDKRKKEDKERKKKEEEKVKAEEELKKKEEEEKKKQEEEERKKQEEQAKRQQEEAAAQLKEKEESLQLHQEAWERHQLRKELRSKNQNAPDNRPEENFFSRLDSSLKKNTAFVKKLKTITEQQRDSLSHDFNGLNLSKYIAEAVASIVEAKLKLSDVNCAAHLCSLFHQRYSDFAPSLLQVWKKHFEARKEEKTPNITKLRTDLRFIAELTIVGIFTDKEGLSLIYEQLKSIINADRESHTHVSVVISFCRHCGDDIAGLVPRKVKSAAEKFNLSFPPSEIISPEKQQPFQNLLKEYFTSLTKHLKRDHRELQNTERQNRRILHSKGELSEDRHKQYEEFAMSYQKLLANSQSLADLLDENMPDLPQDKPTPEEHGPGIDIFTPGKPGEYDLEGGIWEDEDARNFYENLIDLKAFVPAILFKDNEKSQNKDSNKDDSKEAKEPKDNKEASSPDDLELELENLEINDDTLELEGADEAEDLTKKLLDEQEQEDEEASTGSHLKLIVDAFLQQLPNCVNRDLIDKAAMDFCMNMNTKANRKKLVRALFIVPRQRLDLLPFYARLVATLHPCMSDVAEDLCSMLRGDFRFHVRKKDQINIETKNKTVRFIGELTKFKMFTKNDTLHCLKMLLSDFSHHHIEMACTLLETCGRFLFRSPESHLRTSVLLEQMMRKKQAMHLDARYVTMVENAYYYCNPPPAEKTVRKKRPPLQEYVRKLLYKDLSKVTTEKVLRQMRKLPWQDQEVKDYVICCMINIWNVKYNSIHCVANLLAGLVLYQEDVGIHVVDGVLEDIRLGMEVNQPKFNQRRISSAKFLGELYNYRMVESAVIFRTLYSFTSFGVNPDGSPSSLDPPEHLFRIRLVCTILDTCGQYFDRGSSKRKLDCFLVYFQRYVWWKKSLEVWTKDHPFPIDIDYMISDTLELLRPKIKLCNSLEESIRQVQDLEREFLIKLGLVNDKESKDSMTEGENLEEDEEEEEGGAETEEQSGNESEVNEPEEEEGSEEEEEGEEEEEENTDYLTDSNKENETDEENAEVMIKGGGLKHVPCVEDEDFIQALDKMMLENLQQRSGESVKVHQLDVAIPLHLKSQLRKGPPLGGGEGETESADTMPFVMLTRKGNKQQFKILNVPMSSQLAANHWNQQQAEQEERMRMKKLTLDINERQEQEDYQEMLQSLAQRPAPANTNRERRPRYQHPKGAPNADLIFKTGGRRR
UniProt A2A6A1: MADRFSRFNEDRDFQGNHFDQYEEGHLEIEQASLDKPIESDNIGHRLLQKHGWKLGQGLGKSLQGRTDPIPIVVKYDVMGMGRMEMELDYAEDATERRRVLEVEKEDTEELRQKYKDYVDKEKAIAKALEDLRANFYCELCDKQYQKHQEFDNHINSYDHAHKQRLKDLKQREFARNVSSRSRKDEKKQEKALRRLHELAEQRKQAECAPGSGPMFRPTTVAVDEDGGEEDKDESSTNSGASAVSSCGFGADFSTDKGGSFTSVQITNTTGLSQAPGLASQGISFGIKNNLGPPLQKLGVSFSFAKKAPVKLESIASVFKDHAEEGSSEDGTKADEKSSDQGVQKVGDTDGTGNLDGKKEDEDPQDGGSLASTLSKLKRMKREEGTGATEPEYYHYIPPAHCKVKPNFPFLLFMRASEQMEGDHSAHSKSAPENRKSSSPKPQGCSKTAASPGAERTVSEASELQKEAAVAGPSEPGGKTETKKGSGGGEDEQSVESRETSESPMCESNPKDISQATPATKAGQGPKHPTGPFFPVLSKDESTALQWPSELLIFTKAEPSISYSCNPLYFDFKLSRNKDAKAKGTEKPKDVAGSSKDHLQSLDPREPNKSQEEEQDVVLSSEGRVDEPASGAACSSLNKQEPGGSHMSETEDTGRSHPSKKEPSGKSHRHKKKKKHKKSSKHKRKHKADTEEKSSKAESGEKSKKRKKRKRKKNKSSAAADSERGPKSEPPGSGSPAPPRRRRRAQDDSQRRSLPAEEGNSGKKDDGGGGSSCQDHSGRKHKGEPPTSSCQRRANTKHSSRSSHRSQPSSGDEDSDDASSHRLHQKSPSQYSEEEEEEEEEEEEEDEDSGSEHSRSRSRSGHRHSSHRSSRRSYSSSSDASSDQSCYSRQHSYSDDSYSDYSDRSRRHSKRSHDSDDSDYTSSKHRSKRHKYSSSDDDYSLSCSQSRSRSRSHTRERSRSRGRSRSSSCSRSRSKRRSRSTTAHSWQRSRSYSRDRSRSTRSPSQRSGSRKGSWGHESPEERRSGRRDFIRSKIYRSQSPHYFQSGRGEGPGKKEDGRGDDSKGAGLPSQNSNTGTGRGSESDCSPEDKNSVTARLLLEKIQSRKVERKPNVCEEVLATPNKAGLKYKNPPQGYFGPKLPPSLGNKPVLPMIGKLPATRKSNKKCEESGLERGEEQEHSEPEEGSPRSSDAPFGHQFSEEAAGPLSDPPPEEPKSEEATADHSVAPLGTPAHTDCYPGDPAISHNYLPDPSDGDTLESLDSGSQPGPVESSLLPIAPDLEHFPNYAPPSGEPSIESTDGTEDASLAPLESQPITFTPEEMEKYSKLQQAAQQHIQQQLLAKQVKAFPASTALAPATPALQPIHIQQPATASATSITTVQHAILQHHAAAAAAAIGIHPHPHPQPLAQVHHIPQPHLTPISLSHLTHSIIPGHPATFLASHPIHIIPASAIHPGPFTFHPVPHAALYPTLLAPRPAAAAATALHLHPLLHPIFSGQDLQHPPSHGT
UniProt A4FUP9: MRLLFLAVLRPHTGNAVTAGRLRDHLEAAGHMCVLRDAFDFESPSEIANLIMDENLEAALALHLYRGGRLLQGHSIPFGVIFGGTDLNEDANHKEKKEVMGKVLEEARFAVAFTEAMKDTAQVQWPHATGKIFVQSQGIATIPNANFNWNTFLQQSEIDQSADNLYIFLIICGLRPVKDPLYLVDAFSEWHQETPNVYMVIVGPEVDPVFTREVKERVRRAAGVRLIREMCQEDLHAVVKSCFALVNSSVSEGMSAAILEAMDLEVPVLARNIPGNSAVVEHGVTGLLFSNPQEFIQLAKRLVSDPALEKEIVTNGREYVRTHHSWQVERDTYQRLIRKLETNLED
UniProt A2A4P0: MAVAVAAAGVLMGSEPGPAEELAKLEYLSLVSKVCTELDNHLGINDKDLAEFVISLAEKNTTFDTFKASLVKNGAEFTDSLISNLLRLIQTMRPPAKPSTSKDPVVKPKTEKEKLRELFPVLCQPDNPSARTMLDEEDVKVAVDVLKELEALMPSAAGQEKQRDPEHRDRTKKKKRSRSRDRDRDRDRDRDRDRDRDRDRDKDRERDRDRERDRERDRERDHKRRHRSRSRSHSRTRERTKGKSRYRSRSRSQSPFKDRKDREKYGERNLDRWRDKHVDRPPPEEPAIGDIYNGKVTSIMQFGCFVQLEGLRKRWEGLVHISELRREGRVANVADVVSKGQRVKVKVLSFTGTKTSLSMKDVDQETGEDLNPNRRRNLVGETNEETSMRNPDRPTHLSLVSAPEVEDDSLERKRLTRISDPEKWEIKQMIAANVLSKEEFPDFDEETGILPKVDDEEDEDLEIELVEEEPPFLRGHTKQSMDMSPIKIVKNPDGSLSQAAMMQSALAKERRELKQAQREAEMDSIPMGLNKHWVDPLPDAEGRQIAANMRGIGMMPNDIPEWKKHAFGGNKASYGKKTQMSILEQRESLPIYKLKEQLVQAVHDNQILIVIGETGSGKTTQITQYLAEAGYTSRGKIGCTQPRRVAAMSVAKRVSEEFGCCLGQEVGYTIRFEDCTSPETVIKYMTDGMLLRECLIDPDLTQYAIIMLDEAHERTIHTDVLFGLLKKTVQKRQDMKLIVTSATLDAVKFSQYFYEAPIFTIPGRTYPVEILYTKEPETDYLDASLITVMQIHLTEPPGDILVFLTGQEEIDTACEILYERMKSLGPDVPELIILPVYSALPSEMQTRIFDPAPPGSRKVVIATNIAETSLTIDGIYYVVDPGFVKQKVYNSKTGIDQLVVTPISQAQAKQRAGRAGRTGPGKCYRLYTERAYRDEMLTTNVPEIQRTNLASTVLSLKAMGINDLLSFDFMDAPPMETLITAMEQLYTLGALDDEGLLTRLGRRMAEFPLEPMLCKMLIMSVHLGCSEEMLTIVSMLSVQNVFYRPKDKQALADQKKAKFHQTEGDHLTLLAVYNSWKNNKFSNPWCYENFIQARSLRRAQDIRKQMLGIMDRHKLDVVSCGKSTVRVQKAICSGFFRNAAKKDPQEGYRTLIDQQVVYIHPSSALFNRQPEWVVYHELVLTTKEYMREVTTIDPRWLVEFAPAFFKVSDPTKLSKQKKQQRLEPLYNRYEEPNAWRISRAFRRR
UniProt A0JNU3: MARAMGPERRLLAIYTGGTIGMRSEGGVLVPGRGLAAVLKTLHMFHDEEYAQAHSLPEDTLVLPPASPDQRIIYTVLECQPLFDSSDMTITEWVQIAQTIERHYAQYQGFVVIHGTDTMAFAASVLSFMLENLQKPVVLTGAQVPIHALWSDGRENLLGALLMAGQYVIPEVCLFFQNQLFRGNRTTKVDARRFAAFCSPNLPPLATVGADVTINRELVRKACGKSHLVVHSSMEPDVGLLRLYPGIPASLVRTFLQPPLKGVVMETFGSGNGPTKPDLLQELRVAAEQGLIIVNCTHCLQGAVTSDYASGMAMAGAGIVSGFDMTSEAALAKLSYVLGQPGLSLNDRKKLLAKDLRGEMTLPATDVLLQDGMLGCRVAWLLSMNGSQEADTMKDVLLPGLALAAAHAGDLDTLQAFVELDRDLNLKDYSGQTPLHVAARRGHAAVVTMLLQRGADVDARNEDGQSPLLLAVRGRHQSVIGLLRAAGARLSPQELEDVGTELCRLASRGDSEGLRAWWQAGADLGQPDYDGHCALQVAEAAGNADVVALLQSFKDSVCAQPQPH

Compound: CN[C@@H]1C[C@H]2O[C@@](C)([C@@H]1OC)n1c3ccccc3c3c4c(c5c6ccccc6n2c5c31)C(=O)NC4 [staurosporine]
Test: log2 fold change of tryptic peptide abundance, ligand vs vehicle (limited proteolysis) (log2 ratio); higher = more trypsin-susceptible (destabilized)
Details: ligand concentration: 20 uM; sample: mouse liver crude lysate; replicate design: treated separately

Row | Target | log2 fold change
1 | UniProt A3KFM7 (peptide sequence: NFSYLHCK, peptide start residue: 323) | -0.93
2 | UniProt A2AN08 (peptide sequence: LFQLTEK, peptide start residue: 1433) | 0.238
3 | UniProt A2AJQ3 (peptide sequence: AKEEGTSVEPR, peptide start residue: 2) | -0.0298
4 | UniProt A6X942 (peptide sequence: KFRDALANEK, peptide start residue: 125) | 0.296
5 | UniProt A2A9F4 (peptide sequence: GIPVYPYR, peptide start residue: 168) | -0.12
6 | UniProt A2RSJ4 (peptide sequence: DGASSDSVVR, peptide start residue: 1371) | -0.284
7 | UniProt A2ALU4 (peptide sequence: CLFDSLQPER, peptide start residue: 1470) | 0.246
8 | UniProt A6H6A9 (peptide sequence: VVITVQQLSNK, peptide start residue: 313) | 0.564
9 | UniProt B1AR13 (peptide sequence: NQPFCDGSHFFQR, peptide start residue: 77) | -0.253
10 | UniProt A2A432 (peptide sequence: LRFEDTLEFVGIDTK, peptide start residue: 173) | -0.407
11 | UniProt A2AKX3 (peptide sequence: QCPEPTSTVEK, peptide start residue: 1264) | -0.357
12 | A0A571BF63 (peptide sequence: RMKTGFEHAR, peptide start residue: 398), A0A571BF63 | -0.0515
13 | UniProt A2A3V1 (peptide sequence: YSWLEEEGDSIRVDK, peptide start residue: 809) | 0.414
14 | UniProt A2AJL3 (peptide sequence: VVFPEHADKK, peptide start residue: 517) | 0.264
15 | UniProt A2AT37 (peptide sequence: GAPNADLIFK, peptide start residue: 1254) | 0.225
16 | UniProt A2AHJ4 (peptide sequence: FIQTRPK, peptide start residue: 1642) | -0.527
17 | UniProt A2A6A1 (peptide sequence: SQSPHYFQSGR, peptide start residue: 1037) | 0.355

Row | Target | log2 fold change
18 | UniProt A2AJ15 (peptide sequence: RGPPHLQIRPPNTVSK, peptide start residue: 122) | 0.128
19 | UniProt B2RR83 (peptide sequence: FADNTHR, peptide start residue: 664) | -0.908
20 | UniProt A2AJ88 (peptide sequence: SCSVPLPSNHGEVDELR, peptide start residue: 377) | -0.29
21 | A0A7N9VSG0 (peptide sequence: EAILQVITSK, peptide start residue: 370), A0A7N9VSG0 | -0.329
22 | UniProt A6H619 (peptide sequence: TPLQRPQRPQEGDWDAEDR, peptide start residue: 1432) | -0.466
23 | UniProt A2RTL5 (peptide sequence: MLWQGKK, peptide start residue: 279) | 0.51
24 | UniProt A4FUP9 (peptide sequence: LRDHLEAAGHMCVLR, peptide start residue: 22) | 0.228
25 | UniProt A2A4P0 (peptide sequence: VAAMSVAKR, peptide start residue: 645) | 0.422
26 | UniProt A1L3P4 (peptide sequence: RFMGNSSEDALDR, peptide start residue: 652) | -0.138
27 | UniProt A2A690 (peptide sequence: YSQTPQIGR, peptide start residue: 1715) | -0.854
28 | UniProt A2AKK5 (peptide sequence: KAFHRLMK, peptide start residue: 87) | 0.32
29 | UniProt A6PWY4 (peptide sequence: SSVDAYTESTR, peptide start residue: 113) | 0.0724
30 | UniProt A2AL36 (peptide sequence: SEVKDEIR, peptide start residue: 2165) | 0.54
31 | UniProt A2RT67 (peptide sequence: KASPLHITHR, peptide start residue: 540) | 0.428
32 | UniProt A0JNU3 (peptide sequence: RGHAAVVTMLLQR, peptide start residue: 441) | -0.0995
33 | UniProt A1A5B6 (peptide sequence: DHLVQLSHPATLISSK, peptide start residue: 576) | 0.226
34 | UniProt A3KGS3 (peptide sequence: VVQVYRK, peptide start residue: 70) | -0.158

Some of the entries so far, as tab-separated lines.
Row	Target	log2 fold change
18	UniProt A2AJ15 (peptide sequence: RGPPHLQIRPPNTVSK, peptide start residue: 122)	0.128
19	UniProt B2RR83 (peptide sequence: FADNTHR, peptide start residue: 664)	-0.908
20	UniProt A2AJ88 (peptide sequence: SCSVPLPSNHGEVDELR, peptide start residue: 377)	-0.29
